These are yes or no findings as the source states them, for the method shown. In cells and extracts the contact can be indirect. Some binding calls cover weakened binding; strength is not graded here.

Binding data for one molecule are collected here from article PMC11516120.

For this assay, the target named is T1, long-chain acyl-CoA synthase 6 (ACSL6) (human (endogenous in H460 and H1299)) (UniProt Q9UKU0).
T1 sequence: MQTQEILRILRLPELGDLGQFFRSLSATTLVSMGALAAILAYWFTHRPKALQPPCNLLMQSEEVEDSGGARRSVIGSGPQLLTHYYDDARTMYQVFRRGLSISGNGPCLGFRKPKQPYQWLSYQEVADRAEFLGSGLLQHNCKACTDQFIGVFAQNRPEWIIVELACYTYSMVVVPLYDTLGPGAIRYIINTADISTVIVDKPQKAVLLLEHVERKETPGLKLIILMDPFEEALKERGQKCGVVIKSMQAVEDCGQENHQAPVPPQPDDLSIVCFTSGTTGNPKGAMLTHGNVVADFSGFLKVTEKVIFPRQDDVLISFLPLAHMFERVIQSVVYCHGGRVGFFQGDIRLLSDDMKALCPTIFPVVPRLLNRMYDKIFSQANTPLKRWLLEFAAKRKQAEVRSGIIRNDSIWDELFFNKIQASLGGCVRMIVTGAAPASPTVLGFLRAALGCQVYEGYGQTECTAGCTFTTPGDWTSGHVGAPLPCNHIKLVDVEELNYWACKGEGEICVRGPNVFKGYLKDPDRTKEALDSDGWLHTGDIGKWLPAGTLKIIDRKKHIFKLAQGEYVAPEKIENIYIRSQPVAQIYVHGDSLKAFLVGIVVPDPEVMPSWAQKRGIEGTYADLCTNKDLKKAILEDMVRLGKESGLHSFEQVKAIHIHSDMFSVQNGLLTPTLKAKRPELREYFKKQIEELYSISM
The assay can be described thus: co-IP; lysates of WT and ACSL6-overexpressing H460 and H1299 cells; immunoprecipitation overnight at 4 °C with 2 µg anti-ACSL6, Protein A+G magnetic beads, washes with NETN-300 and IP lysis buffer; western blot. For orientation: Immunoblotting shows a protein as a band on a membrane.

B1: Friend leukemia integration 1 transcription factor (FLI1) (protein, UniProt Q01543 1-452)
chain: MDGTIKEALSVVSDDQSLFDSAYGAAAHLPKADMTASGSPDYGQPHKINPLPPQQEWINQPVRVNVKREYDHMNGSRESPVDCSVSKCSKLVGGGESNPMNYNSYMDEKNGPPPPNMTTNERRVIVPADPTLWTQEHVRQWLEWAIKEYSLMEIDTSFFQNMDGKELCKMNKEDFLRATTLYNTEVLLSHLSYLRESSLLAYNTTSHTDQSSRLSVKEDPSYDSVRRGAWGNNMNSGLNKSPPLGGAQTISKNTEQRPQPDPYQILGPTSSRLANPGSGQIQLWQFLLELLSDSANASCITWEGTNGEFKMTDPDEVARRWGERKSKPNMNYDKLSRALRYYYDKNIMTKVHGKRYAYKFDFHGIAQALQPHPTESSMYKYPSDISYMPSYHAHQQKVNFVPPHPSSMPVTSSSFFGAASQYWTSPTGGIYPNPNVPRHPNTHVPSHLGSYY
B1: the binding entry is given as “binds”.
